Record: PubChem BioAssay AID1259283 (Sanger Institute, 2017)

Purpose: 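Kinases needed for HT115 growth and partners for drug synergy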 (primary screen)
System: HT115 colorectal cancer cells
Reagents: siRNA pool against human genes
Treatment: anchor drug given one day after siRNA: BYL719 at 1 µM, cetuximab at 5 µg/ml, trametinib at 10 nM, or DMSO vehicle alone
Detection: 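Viability normalised to non-targeting pool #2 wells and averaged over replicates, robust z-score against control wells, and a synergy score for each of three drugs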
Reading the numbers: robust z-score, knock-down alone: higher = more viable cells after knock-down; viability, DMSO vs non-targeting control: higher = more viable cells; synergy score with BYL719 and synergy score with cetuximab and synergy score with trametinib: higher = stronger synergy with drug (synthetic lethal)
Call rule: 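a gene counts as essential when its robust z-score with knock-down alone is below -3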
Meaning of the calls: active = essential (z below -3, no drug); inactive = no change without drug
This is an unselected part of 794 reagents tested. 14 of all reagents (1.8%) were called active. 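Calls reflect only viability loss without drug; drug synergy does not enter the call.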 Viability is capped at 1. The record does not give: the amount of reagent, the time to read-out.

| gene symbol | robust z-score, knock-down alone | viability, DMSO vs non-targeting control (fraction of control) | synergy score with BYL719 | synergy score with cetuximab | synergy score with trametinib | Call |
| --- | --- | --- | --- | --- | --- | --- |
| MAST1 | 0.789 | 1 | -0.0224 | 0.103 | -0.0318 | inactive |
| DIS3 | 0.789 | 1 | -0.0215 | 0.0419 | -0.000203 | inactive |
| DGKK | 0.789 | 1 | -0.0224 | 0.00407 | -0.0234 | inactive |
| LTK | -0.0591 | 0.922 | 0.0696 | 0.027 | 0.109 | inactive |
| NME6 | -3.26 | 0.626 | -0.072 | -0.0207 | 0.0122 | active |
| PFKM | 0.579 | 0.981 | -0.0341 | -0.00411 | -0.0496 | inactive |
| CAMK4 | 0.395 | 0.964 | 0.0365 | 0.297 | 0.166 | inactive |
| CHKA | -1.55 | 0.783 | 0.00959 | -0.00891 | 0.0566 | inactive |
| SGK2 | 0.789 | 1 | 0.144 | 0.124 | 0.143 | inactive |
| DSTYK | 0.789 | 1 | 0.021 | -0.0435 | -0.0686 | inactive |
| SIK2 | -1.05 | 0.83 | -0.0344 | -0.00885 | -0.123 | inactive |
| BMPR1A | 0.789 | 1 | 0.0692 | 0.101 | 0.00741 | inactive |
| SIK3 | 0.789 | 1 | 0.00584 | 0.0662 | -0.0248 | inactive |
| NEK7 | 0.789 | 1 | -0.0224 | -0.0261 | 0.0613 | inactive |
| PRKX | 0.789 | 1 | -0.0224 | -0.0214 | 0.0955 | inactive |
| CDK11B | -0.483 | 0.882 | -0.123 | 0.00352 | -0.0369 | inactive |
| WNK4 | 0.789 | 1 | 0.0302 | 0.00648 | 0.0672 | inactive |
| FOXP1 | 0.0343 | 0.93 | 0.0848 | 0.0591 | 0.134 | inactive |
| PRKAR1A | 0.789 | 1 | 0.0367 | 0.0461 | 0.0268 | inactive |
| MAP3K12 | 0.784 | 1 | -0.0121 | 0.0311 | 0.101 | inactive |
| CAMK2A | 0.789 | 1 | 0.0658 | 0.0299 | 0.112 | inactive |
| FASTK | -0.441 | 0.886 | -0.0597 | 0.0154 | -0.0588 | inactive |
| VRK3 | 0.789 | 1 | -0.0224 | -0.0435 | -0.0196 | inactive |
| MAPKAPK2 | 0.789 | 1 | 0.045 | 0.0932 | 0.105 | inactive |
| GATA3 | -0.852 | 0.848 | 0.0244 | 0.0399 | -0.0486 | inactive |
| PIK3R3 | 0.789 | 1 | -0.0224 | -0.0231 | -0.0311 | inactive |
| RPS6KA3 | 0.613 | 0.984 | 0.00656 | 0.0531 | -0.0399 | inactive |
| PRKACB | -0.969 | 0.838 | -0.147 | -0.0276 | -0.0243 | inactive |
| PTPN11 | 0.789 | 1 | 0.0138 | 0.0726 | -0.0146 | inactive |
| PRKD2 | 0.481 | 0.972 | 0.0688 | 0.11 | 0.0351 | inactive |
| PRKAR1B | -1.58 | 0.781 | -0.013 | 0.0345 | -0.027 | inactive |
| PAPSS2 | -1.24 | 0.813 | -0.19 | 0.0648 | 0.0736 | inactive |
| ULK1 | 0.534 | 0.976 | 0.0451 | 0.128 | 0.178 | inactive |
| APC | 0.61 | 0.983 | 0.162 | 0.115 | 0.225 | inactive |
| MAP3K19 | -0.767 | 0.856 | -0.0237 | 0.0116 | -0.035 | inactive |
| STK25 | 0.789 | 1 | -0.0224 | 0.132 | 0.156 | inactive |
| TSSK3 | -0.804 | 0.853 | -0.0424 | 0.00452 | -0.0618 | inactive |
| MGA | -2.51 | 0.695 | 0.0114 | -0.0407 | -0.0271 | inactive |
| GCK | -2.41 | 0.704 | -0.0656 | -0.0567 | -0.00621 | inactive |
| CLSPN | 0.789 | 1 | 0.0372 | 0.112 | 0.143 | inactive |
| TWF2 | 0.789 | 1 | 0.0492 | 0.0958 | 0.123 | inactive |
| CLK3 | -0.0691 | 0.921 | 0.119 | 0.00406 | 0.0652 | inactive |
| GAK | -0.165 | 0.912 | 0.0211 | -0.0148 | 0.0964 | inactive |
| TBK1 | -1.5 | 0.789 | 0.0309 | 0.0643 | 0.13 | inactive |
| MAP2K7 | 0.767 | 0.998 | -0.0243 | 0.0733 | 0.112 | inactive |
| ITPK1 | 0.789 | 1 | -0.0224 | -0.0435 | -0.0768 | inactive |
| NEK5 | 0.789 | 1 | 0.0091 | -0.013 | -0.0361 | inactive |
| ACVR2A | -0.786 | 0.854 | -0.165 | -0.149 | -0.0218 | inactive |
| ANKK1 | 0.378 | 0.962 | -0.0366 | 0.147 | 0.121 | inactive |
| LRRK1 | 0.534 | 0.976 | -0.0455 | 0.096 | 0.104 | inactive |
| GOLGA5 | 0.536 | 0.977 | -0.0313 | 0.0293 | 0.0317 | inactive |
| LYN | -0.558 | 0.875 | -0.0403 | -0.0459 | 0.00903 | inactive |
| COASY | -2.06 | 0.736 | 0.12 | 0.164 | 0.111 | inactive |
| CALM3 | 0.789 | 1 | 0.0798 | 0.17 | -0.0792 | inactive |
| PKN1 | 0.789 | 1 | 0.0146 | -0.023 | 0.00141 | inactive |
| DDR2 | 0.78 | 0.999 | 0.0936 | 0.0228 | 0.202 | inactive |
| CDK4 | -1.05 | 0.83 | 0.00854 | 0.222 | 0.155 | inactive |
| CKMT1B | 0.789 | 1 | 0.105 | 0.21 | 0.146 | inactive |
| ULK3 | 0.789 | 1 | 0.018 | 0 | 0.0506 | inactive |
| CAMKV | 0.789 | 1 | -0.0224 | 0.113 | 0.151 | inactive |
| LMTK3 | -0.151 | 0.913 | 0.13 | 0.283 | 0.126 | inactive |
| NEK3 | -0.777 | 0.855 | 0.0154 | -0.00761 | 0.0874 | inactive |
| EPHA3 | -0.55 | 0.876 | -0.0637 | -0.0208 | 0.104 | inactive |

6 neighbouring entries already listed, quoted:
| gene symbol | robust z-score, knock-down alone | viability, DMSO vs non-targeting control (fraction of control) | synergy score with BYL719 | synergy score with cetuximab | synergy score with trametinib | Call |
| --- | --- | --- | --- | --- | --- | --- |
| ANKK1 | 0.378 | 0.962 | -0.0366 | 0.147 | 0.121 | inactive |
| LRRK1 | 0.534 | 0.976 | -0.0455 | 0.096 | 0.104 | inactive |
| GOLGA5 | 0.536 | 0.977 | -0.0313 | 0.0293 | 0.0317 | inactive |
| LYN | -0.558 | 0.875 | -0.0403 | -0.0459 | 0.00903 | inactive |
| COASY | -2.06 | 0.736 | 0.12 | 0.164 | 0.111 | inactive |
| CALM3 | 0.789 | 1 | 0.0798 | 0.17 | -0.0792 | inactive |
